{"source": "patent US20090124622A1", "about": "“Medicament Containing a Thiazole Derivative as an Active Ingredient” (priority 2006, published 2009)", "test_system": "guinea pig rhinitis model", "assay": "Nasal cavity resistance change (sRaw) in guinea pig rhinitis model", "type": "in vivo", "settings": "oral, 16 hours and 2 hours before challenge", "procedure": "Referring to the report (74th Japanese Pharmacological Society (2001), Abstract number P-258, Establishment delayed rhinitis model by a guinea pig and effect of polysulfonic acidified hyaluronic acid, Masaki Matsudo, Junichi Fuchigami et al.), the following evaluation was conducted.\nA saline solution (1 ml) containing OVA (50 mg) and aluminum hydroxide gel (1 mg) (by PIERCE) was percuteneously administered to a male Hartley guinea pig (from Kyudo Co. Ltd.) on back collum to make active sensitization.\nSMP-028 was orally administered for 15 days starting from sensitization once a day (5 ml/body weight (kg)). The drug was orally administered before 1 hour on the sensitized day or on the antibody-challenged day. […]\nBy using a general respiratory function analysis system (PULMOS-I, by M.I.P.S), nasal cavity resistance of guinea big under palinesthesia was measured in accordance with the method of Double flow plestymograph. Because antibody challenge region was restricted to nose part, sRaw which was analyzed by computer and outputted (specific airway resistance) was served as an index of nasal cavity resistance. Before antibody nasal challenge, 10 minutes, 2, 3, 4, 5, 6 and 7 hours after the challenge, each sRaw per animal was once measured, and average of 100 breathes was made sRaw at each measured time. […] AUC3-7hr was calculated by trapezoid (echelon) method. […]", "note": "For at least one compound, name, drawing or mass did not settle the structure.", "data": [{"compound": "C[C@@H]1C[C@H]2[C@@H]3CCC4=CC(=O)C=C[C@]4(C)[C@@]3(F)[C@@H](O)C[C@]2(C)[C@@]1(O)C(=O)CO", "note": "[dexamethasone, reference compound]", "values": [{"measurement": "efficacy on nasal congestion reaction (positive control)", "value": "showed efficacy"}]}]}
